Assay results as given in PubChem BioAssay AID2685 (National Center for Advancing Translational Sciences (NCATS), 2010).
This is one part of the list. The main result of the screen is listed elsewhere. These columns were measured beside it and carry no call. Compounds called inactive in the main read-out are mostly missing here. The note in brackets gives the kind of curve behind each potency; many fits are weak.

Test: qHTS Assay for Lipid Storage Modulators in Drosophila S3 Cells;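 on cell number change: cells counted by Cell Tracker Red CMTPX staining in the red channel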
Conditions: BODIPY lipid droplet fluorescence, 18-24 h; for cell number change: measured here: cell count max response, cells fed with added oleic acid
Method in brief: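 Drosophila S3 cells got compounds at several concentrations plus oleic acid (400 uM solution). Laser-scanning cytometry with 488 nm excitation read lipid droplets at 500-530 nm and cells at 575-640 nm. Percent activity was relative to 20 uM Triacsin C.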

[1] = measured here: lipid fluorescence (Fed channel) AC50, cells fed with added oleic acid
[2] = measured here: cell number channel AC50, cells fed with added oleic acid

Compound | cell number change [%] | AC50 [1] | AC50 [2]
C/C=C/C=N/Nc1nc(C)cc(=O)[nH]1 | -17.2 | 25.9 µM [falling, single point] | –
N#CCC(=N)N1CCN(c2cccc(Cl)c2)CC1 | – | – | 5.8 µM [rising, single point]
CC1(C)Cc2c(C#N)c(SCCC#N)nc(N3CCOCC3)c2CO1 | -4.93 | 29.1 µM [falling, single point] | –
CCCc1cc(=O)oc2c3c(cc(OCC(=O)N[C@@H](CSC)C(=O)O)c12)OC(C)(C)CC3 | 43.7 | – | 13 µM [rising, partial curve, poor fit]
O=C(O)CC1(c2ccccc2)C(=O)c2ccccc2C1=O | 40.1 | – | 29.1 µM [rising, single point]
CSc1nc(C)c(C(=O)C[n+]2ccc(C)cc2)cc1C#N | -3.91 | 20.6 µM [falling, partial curve, poor fit] | 0.00517 µM [falling, full curve, poor fit]
CCN(CC)S(=O)(=O)c1ccc(C(=O)NCc2ccc(C)cc2)cc1 | -28.2 | 20.6 µM [falling, single point] | –
Cc1ccc(CNC(=O)CCS(=O)(=O)c2ccc3c(c2)CC(C)N3C(=O)C2CC2)cc1 (stereo not drawn) | -14.4 | 0.0082 µM [falling, full curve, poor fit] | –
O=C(COC(=O)C1=COCCO1)Nc1ccc(F)cc1 | -1.61 | – | –
COc1ccc(Cl)cc1NC(=O)CCNC(=O)OCc1ccccc1 | – | 10.3 µM [falling, partial curve] | –
COc1ccc(C(C)=O)cc1CSc1nnc(Nc2ccc(C)cc2)s1 | -12.2 | – | 4.61 µM [rising, single point]
COc1cc(OC)c(NC(=O)c2c(-c3ccccc3)noc2C)cc1Cl | – | – | 0.326 µM [rising, partial curve]
CN(C)CCCNC(=O)CCC1CCCCC1 | -187 | 29.1 µM [falling, single point] | 0.651 µM [falling, single point]
Cc1c(C(=O)NCc2ccoc2)oc2ccc3c(c12)C(=O)CC(C)(C)O3 | -26.5 | 20.6 µM [falling, partial curve, poor fit] | –
CCC(=O)Nc1ccc2c(c1)nc(CN1CCN(C(C)=O)CC1)n2C | 9.19 | – | –
CCOC(=O)CSc1nnc(Cc2ccccc2)n1CC1CCCO1 (stereo not drawn) | -3.1 | 0.231 µM [falling, full curve, poor fit] | –
Cc1ccc2c(c1)N(CC(=O)NCc1cccs1)C(=O)C(C)O2 (stereo not drawn) | -40 | 0.0461 µM [falling, full curve] | 9.2 µM [falling, partial curve, poor fit]
C/C(=N\NC(=O)c1cc(C)[nH]n1)c1cccs1 | -16.9 | – | 0.13 µM [falling, full curve, poor fit]
O=C(CSc1nnc(CNC(=O)c2ccccc2)o1)c1ccccc1 | 27.5 | 4.47 µM [rising, partial curve] | –

Compound | cell number change [%] | AC50 [1] | AC50 [2]
COCCNC(=O)Cn1cnc2sc(C)c(S(=O)(=O)N3CCN(c4ccccc4OC)CC3)c2c1=O | 20.8 | 1.16 µM [falling, single point] | –
N#Cc1c(-c2ccccc2)nc(-c2cccnc2)[nH]c1=O | 19.8 | 18.4 µM [rising, partial curve] | –
NC(=O)Cc1ccc(C(=O)c2ccccc2)s1 | 31.5 | 20.6 µM [rising, single point] | 0.00411 µM [rising, full curve, poor fit]
Cc1ccc(CN2C(=O)CCC2C(=O)NCCCN2CCCC(C)C2)cc1 (stereo not drawn) | -91.5 | 2.91 µM [falling, full curve] | 3.26 µM [falling, full curve]
CCC/C(=N\NC(=O)c1ccco1)c1ccc(Cl)s1 | -3.97 | – | –
COc1ccccc1N1CCN(C(=O)c2ccccc2SCC(=O)NCc2ccco2)CC1 | – | – | 1.46 µM [rising, partial curve, poor fit]
Cc1cccc(NC(=O)CCN2CCCC(C)C2)c1 (stereo not drawn) | 3.94 | 29.1 µM [rising, single point] | –
O=C(Nc1ccccc1C(F)(F)F)c1cc(-c2ccc(O)cc2)on1 | -61.7 | 29.1 µM [falling, single point] | 18.4 µM [falling, partial curve]
O=C(OCCc1cc2ccccc2c(=O)o1)c1cccs1 | -6.66 | 0.651 µM [falling, single point] | –
CSc1nc(C(=O)N2CCCC(Nc3ccc(C)c(C)c3)C2)cs1 (stereo not drawn) | 5.25 | 1.78 µM [rising, partial curve] | 3.55 µM [rising, partial curve, poor fit]
Cc1nn2c(-c3ccccn3)ccnc2c1Cl | 22.4 | 0.103 µM [rising, full curve, poor fit] | 0.0731 µM [rising, full curve, poor fit]
COc1ccc(CCNCC(C)c2ccccc2)cc1 (stereo not drawn) | 34.2 | – | 4.11 µM [rising, full curve, poor fit]
CCC(C)[C@H](NC(=O)[C@@H]1CSC2c3ccccc3C(=O)N21)C(=O)NCc1ccco1 (stereo partly drawn) | 23.3 | – | –
CC(Oc1ccc2ccc(=O)oc2c1)C(=O)N1CCOCC1 (stereo not drawn) | -43.4 | 5.17 µM [falling, full curve] | 4.11 µM [falling, full curve]
CC1(c2cnc(Nc3ccccc3)s2)CCC(=O)O1 (stereo not drawn) | 12 | 6.51 µM [rising, single point] | 5.17 µM [falling, single point]
Cn1nnc(NC(=S)NC(=O)c2cccc3c(Cl)cccc23)n1 | -4.25 | 6.51 µM [rising, single point] | –
CN(CC(=O)Nc1cccc(F)c1)C(=O)c1cc(S(=O)(=O)N(C)C)ccc1N1CCCC1 | 3.02 | 23.1 µM [rising, partial curve] | –
COc1ccc(C)cc1NC(=O)CN1C(=O)COc2ccc(S(=O)(=O)N3CCOCC3)cc21 | 1.48 | – | –
Cc1cccc(Nc2nc3ccccc3s2)c1C | 47.3 | 2.31 µM [rising, partial curve] | 29.1 µM [rising, single point]

Ordered by count of non-hydrogen atoms (high to low): some entries from above
Compound | cell number change [%] | AC50 [1] | AC50 [2]
COc1ccc(C)cc1NC(=O)CN1C(=O)COc2ccc(S(=O)(=O)N3CCOCC3)cc21 | 1.48 | – | –
O=C(CSc1nnc(CNC(=O)c2ccccc2)o1)c1ccccc1 | 27.5 | 4.47 µM [rising, partial curve] | –
CCC/C(=N\NC(=O)c1ccco1)c1ccc(Cl)s1 | -3.97 | – | –
